Assay [1] deals with T1, Glr1 (glutathione reductase), yeast‐2‐hybrid bait (Saccharomyces cerevisiae) (UniProt P41921).
T1 sequence: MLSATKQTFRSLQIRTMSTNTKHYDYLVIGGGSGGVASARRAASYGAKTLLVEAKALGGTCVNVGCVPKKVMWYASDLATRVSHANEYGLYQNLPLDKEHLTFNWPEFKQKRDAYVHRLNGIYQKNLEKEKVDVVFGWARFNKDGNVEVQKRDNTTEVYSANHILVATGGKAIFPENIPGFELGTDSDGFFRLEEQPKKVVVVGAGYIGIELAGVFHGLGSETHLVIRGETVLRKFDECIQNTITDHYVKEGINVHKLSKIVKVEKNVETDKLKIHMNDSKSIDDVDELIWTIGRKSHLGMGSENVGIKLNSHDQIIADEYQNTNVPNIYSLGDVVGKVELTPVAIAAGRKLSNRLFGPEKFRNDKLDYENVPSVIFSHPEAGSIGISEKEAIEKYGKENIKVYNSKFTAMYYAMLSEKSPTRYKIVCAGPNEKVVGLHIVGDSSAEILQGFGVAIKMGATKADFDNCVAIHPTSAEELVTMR
Briefly: two-hybrid; PJ69‐4A cells; prey on pPC86 (GAL4 activation domain), bait on pPC97 (GAL4 DNA-binding domain); growth on YNBG -trp-leu-his-ade and/or -trp-leu-his +5 mM 3-AT at 30°C.

In assay [2] the target is T2, Flag‐Glr1 expressed in E. coli (pACYCDuet‐1) (Saccharomyces cerevisiae) (UniProt P41921).
T2 sequence: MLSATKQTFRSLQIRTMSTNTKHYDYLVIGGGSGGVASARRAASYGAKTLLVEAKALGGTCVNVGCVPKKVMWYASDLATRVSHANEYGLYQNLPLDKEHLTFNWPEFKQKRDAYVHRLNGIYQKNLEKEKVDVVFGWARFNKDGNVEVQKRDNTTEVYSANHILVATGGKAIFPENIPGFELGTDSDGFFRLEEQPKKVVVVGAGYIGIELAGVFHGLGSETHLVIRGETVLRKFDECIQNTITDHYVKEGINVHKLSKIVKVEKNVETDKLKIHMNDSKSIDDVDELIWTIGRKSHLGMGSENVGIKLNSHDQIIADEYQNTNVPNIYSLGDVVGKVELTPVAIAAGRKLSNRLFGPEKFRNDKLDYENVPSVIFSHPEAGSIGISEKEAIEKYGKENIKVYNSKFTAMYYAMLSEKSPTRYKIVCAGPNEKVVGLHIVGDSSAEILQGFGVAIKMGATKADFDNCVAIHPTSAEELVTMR
In words: pull-down; Flag-Glr1 and Pex5 constructs expressed individually or together in E. coli; lysates in TBS; FLAG beads, elution with free FLAG peptide; blots with anti-DYKDDDDK and anti-polyHistidine.

Results are given in words; binding and its absence hold for the method and conditions named. For some assays here: Binding seen in cells or lysates may run through a third protein. Some binding calls cover weakened binding; strength is not graded here. Where a sequence is shown, tags or fusion partners need not be part of it.

Consider five molecules from paper PMC9513677, “Systematic multi‐level analysis of an organelle proteome reveals new peroxisomal functions” (Molecular Systems Biology, 2022).

B1: Pex5 full‐length, yeast‐2‐hybrid prey (receptor, UniProt P35056 1-612)
chain: MDVGSCSVGNNPLAQLHKHTQQNKSLQFNQKNNGRLNESPLQGTNKPGISEAFISNVNAISQENMANMQRFINGEPLIDDKRRMEIGPSSGRLPPFSNVHSLQTSANPTQIKGVNDISHWSQEFQGSNSIQNRNADTGNSEKAWQRGSTTASSRFQYPNTMMNNYAYASMNSLSGSRLQSPAFMNQQQSGRSKEGVNEQEQQPWTDQFEKLEKEVSENLDINDEIEKEENVSEVEQNKPETVEKEEGVYGDQYQSDFQEVWDSIHKDAEEVLPSELVNDDLNLGEDYLKYLGGRVNGNIEYAFQSNNEYFNNPNAYKIGCLLMENGAKLSEAALAFEAAVKEKPDHVDAWLRLGLVQTQNEKELNGISALEECLKLDPKNLEAMKTLAISYINEGYDMSAFTMLDKWAETKYPEIWSRIKQQDDKFQKEKGFTHIDMNAHITKQFLQLANNLSTIDPEIQLCLGLLFYTKDDFDKTIDCFESALRVNPNDELMWNRLGASLANSNRSEEAIQAYHRALQLKPSFVRARYNLAVSSMNIGCFKEAAGYLLSVLSMHEVNTNNKKGDVGSLLNTYNDTVIETLKRVFIAMNRDDLLQEVKPGMDLKRFKGEFSF
Take B1: the binding entry in assay [1] is reported as “binds”.

B2: Full‐length yeast Pex5 expressed in E. coli (pET28) (receptor, UniProt P35056 1-612)
chain: MDVGSCSVGNNPLAQLHKHTQQNKSLQFNQKNNGRLNESPLQGTNKPGISEAFISNVNAISQENMANMQRFINGEPLIDDKRRMEIGPSSGRLPPFSNVHSLQTSANPTQIKGVNDISHWSQEFQGSNSIQNRNADTGNSEKAWQRGSTTASSRFQYPNTMMNNYAYASMNSLSGSRLQSPAFMNQQQSGRSKEGVNEQEQQPWTDQFEKLEKEVSENLDINDEIEKEENVSEVEQNKPETVEKEEGVYGDQYQSDFQEVWDSIHKDAEEVLPSELVNDDLNLGEDYLKYLGGRVNGNIEYAFQSNNEYFNNPNAYKIGCLLMENGAKLSEAALAFEAAVKEKPDHVDAWLRLGLVQTQNEKELNGISALEECLKLDPKNLEAMKTLAISYINEGYDMSAFTMLDKWAETKYPEIWSRIKQQDDKFQKEKGFTHIDMNAHITKQFLQLANNLSTIDPEIQLCLGLLFYTKDDFDKTIDCFESALRVNPNDELMWNRLGASLANSNRSEEAIQAYHRALQLKPSFVRARYNLAVSSMNIGCFKEAAGYLLSVLSMHEVNTNNKKGDVGSLLNTYNDTVIETLKRVFIAMNRDDLLQEVKPGMDLKRFKGEFSF
As to B2, the binding entry in assay [2] is reported as “binds”.

B3: Pex5 N′ domain (1–299), yeast‐2‐hybrid prey (domain or fragment, UniProt P35056 1-299)
chain: MDVGSCSVGNNPLAQLHKHTQQNKSLQFNQKNNGRLNESPLQGTNKPGISEAFISNVNAISQENMANMQRFINGEPLIDDKRRMEIGPSSGRLPPFSNVHSLQTSANPTQIKGVNDISHWSQEFQGSNSIQNRNADTGNSEKAWQRGSTTASSRFQYPNTMMNNYAYASMNSLSGSRLQSPAFMNQQQSGRSKEGVNEQEQQPWTDQFEKLEKEVSENLDINDEIEKEENVSEVEQNKPETVEKEEGVYGDQYQSDFQEVWDSIHKDAEEVLPSELVNDDLNLGEDYLKYLGGRVNGNI
As for B3, the binding entry in assay [1] is reported as “binds”.

B4: Pex5 C′ (313–612) expressed in E. coli (pET28) (domain or fragment, UniProt P35056 313-612)
chain: PNAYKIGCLLMENGAKLSEAALAFEAAVKEKPDHVDAWLRLGLVQTQNEKELNGISALEECLKLDPKNLEAMKTLAISYINEGYDMSAFTMLDKWAETKYPEIWSRIKQQDDKFQKEKGFTHIDMNAHITKQFLQLANNLSTIDPEIQLCLGLLFYTKDDFDKTIDCFESALRVNPNDELMWNRLGASLANSNRSEEAIQAYHRALQLKPSFVRARYNLAVSSMNIGCFKEAAGYLLSVLSMHEVNTNNKKGDVGSLLNTYNDTVIETLKRVFIAMNRDDLLQEVKPGMDLKRFKGEFSF
On to B4, for which, in assay [2], the binding result was “binds”.

B5: Pex5 N′ (1–312) expressed in E. coli (pET28) (domain or fragment, UniProt P35056 1-312)
chain: MDVGSCSVGNNPLAQLHKHTQQNKSLQFNQKNNGRLNESPLQGTNKPGISEAFISNVNAISQENMANMQRFINGEPLIDDKRRMEIGPSSGRLPPFSNVHSLQTSANPTQIKGVNDISHWSQEFQGSNSIQNRNADTGNSEKAWQRGSTTASSRFQYPNTMMNNYAYASMNSLSGSRLQSPAFMNQQQSGRSKEGVNEQEQQPWTDQFEKLEKEVSENLDINDEIEKEENVSEVEQNKPETVEKEEGVYGDQYQSDFQEVWDSIHKDAEEVLPSELVNDDLNLGEDYLKYLGGRVNGNIEYAFQSNNEYFNN
Turning to B5, the binding result in assay [2] is reported as “binds”.
